Several values for one entry are separate records, joined by “and”; a condition that tells them apart may be missing. Identical values can stand only once.
Key:
[1] = tested on: s.c. HeLa tumors; assay: Fluorescence imaging of varying sizes of s.c. HeLa tumors; type: in vivo, mice
Description: page 21: Supplementary Figure 29. Fluorescence imaging of varying sizes of s.c. HeLa tumors in mice. (a) Representative fluorescence images of mice with s.c. HeLa tumors at a mean size of 3.8 ± 0.8, 22.1 ± 1.6, 46.4 ± 4.2, 75.9 ± 4.5 and 125.5 ± 12.7 mm3, respectively. […]) was i.v. injected into mice, and the whole-body fluorescence images were acquired at 0 and 4 h. Red arrows indicate the locations of tumors, and the black circle indicates the position chosen for the background in each mouse. (b) Calculated SBR in mice of different tumor sizes. […] Data denote mean ± s.d. (n = 3 independent animals). […] 21 (1 picture or pasted object on this page, not shown here)

[2] = GSH-triggered reduction, disassembly of Pt^IVNPs and CDDP release in solution (HPLC, DLS, TEM, ICP-OES); conditions: Supplementary Fig 9 c
Description: To evaluate the ALP-triggered dephosphorylation and in situ self-assembly process, a solution of P-CyPt (10 μM) in Tris buffer (1 mL) was incubated with ALP (100 U/L) at 37 °C. HPLC, DLS, and TEM analyses were performed at 0, 5, 10, 15, 20, and 30 min. To evaluate the GSH-triggered reduction and disassembly process, P-CyPt (10 μM) in Tris buffer (1 mL) was first incubated with ALP (100 U/L) at 37 °C for 30 min to allow the formation of Pt^IVNPs. The solution was then treated with 10 mM GSH at 37 °C, which was monitored by HPLC, DLS, and TEM at 10, 20, 30, 40, 50, and 60 min.
(a) 5 mM GSH 10 mM GSH(b ) (c)
60 min 60 min CyPt Cy- CO O H
Time (min) Time (min) Time (min)
Supplementary Figure 9. HPLC traces of the time-dependent conversion of PtIVNPs (CyPt) into Cy-COOH under incubation with 5 mM (a) or 10 mM GSH (b) in Tris buffer. (c) The conversion curves of PtIVNPs (CyPt) into Cy-COOH under incubation with 5 mM (red) or 10 mM GSH (black) in Tris buffer. P-CyPt (10 μM) was incubated with ALP (100 U/L, 37 °C) in Tris buffer for 30 min to allow complete dephosphorylation and in situ self-assembly into PtIVNPs. Then, GSH at a concentration of 5 mM or 10 mM was added and incubated for another 0, 10, 20, 30, 40, 50, and 60 min. The amounts of CyPt and Cy-COOH at each time point were quantified by HPLC.
Date are mean ± s.d. (n = 3 independent experiments). […]
Release of CDDP from PtIVNPs during disassembly process. P-CyPt (10 μM) in 5 mL Tris buffer was incubated with ALP (100 U/L) at 37 °C for 30 min to form PtIVNPs, followed by addition with 10 mM GSH at 37 °C. After 10, 20, 30, 40, 50 and 60 min, 50 mM N-ethylmaleimide was added into the solution to scavenge GSH. The reaction solution was centrifuged at 13,000 × g and the supernatant was collected. The supernatants were digested with concentrated HNO3 (65~70%) and HCl (36~38%) at 90 °C for 24 h. The solution was diluted to 5 mL 2% HNO3 and 5% HCl solution, and the concentration of Pt element was measured by ICP-OES, which was further applied to calculate the amount of CDDP (denoted as NPt) released in the solution. The percentage of Pt release at each time point was calculated according to the formula:
Pt release % = NPt/N0 × 100% (9)
Where N0 represents the total amount of Pt in the in situ formed PtIVNPs, and NPt represents the amount of Pt released from PtIVNPs following incubation with GSH.
Characterization of enzyme kinetics of P-CyPt towards ALP. Briefly, varying concentrations of P-CyPt (0.5, 1.0, 2.0, 3.0, 4.0, and 5.0 μM) in 100 μL Tris buffer were placed in a 96-well black plate. The reactions were initiated upon addition of 100 μL ALP (30 U/L) to each solution. The resulting fluorescence intensities in each well in the first five minutes were recorded on a Spark™ 10M Multimode Microplate Reader (λex/em = 680/710 nm). The amount of CyPt at each time point was determined by a standard curve under the same conditions. Kinetics values, including Km and Vmax, were determined according to the Lineweaver-Burk plot.
Determination of the sensitivity of P-CyPt towards ALP. To evaluate the sensitivity of P-CyPt towards ALP, P-CyPt (10 μM) was incubated with varying concentrations of […]
30 min, and the fluorescence spectra were then recorded on a HORIBA Jobin Yvon Fluoromax-4 fluorometer, with an excitation at 680 nm. The resulting fluorescence intensities at 710 nm were plotted to the con centrations of ALP, and a linear regression fitted from 0 -20 U/L ALP was obtained, affording the slope k. The detection limit was calculated from 3σ/k, where σ represents the standard deviation of 11 blank […]
Determination of the specificity towards ALP. The specificity towards ALP in vitro was evaluated based on fluorescence, respectively. P-CyPt (10 μM) in Tris buffer was incubated with 10 nmol/L of MMP-2, 100 U/L of γ-glutamyl transferase (GGT), 100 U/L Cathepsin B (CTB), 0.2 μg/mL of Caspase-3/7, 2.5 mg/mL of Trypsin, 100 U/L of ALP or 100 U/L ALP pretreated with its inhibitors, Na 3VO4 (100 μM) for 10 min. The […]

Structure (SMILES): CC1(C)C(/C=C/C2=C3Oc4cc(OP(=O)(O)O)c(Cl)cc4C=C3CCC2)=[N+](CCCNC(=O)[C@@H](Cc2ccccc2)NC(=O)[C@@H](Cc2ccccc2)NC(=O)CCC(=O)[O][Pt]([NH2])([NH2])([OH])([Cl])[Cl])c2ccccc21 [P-CyPt]
- FL intensity of tumor (Supplementary Fig.29 (c)) ([1]; 1st size group (mean tumor size 3.763 mm3), individual mice): 4.65E+08 and 4.03E+08 and 4.44E+08
- FL intensity of tumor (Supplementary Fig.29 (c)) ([1]; 1st size group (mean tumor size 3.763 mm3), mean of 3 mice): 4.37E+08
- FL intensity of tumor (Supplementary Fig.29 (c)) ([1]; 2nd size group (mean tumor size 22.090 mm3), individual mice): 5.42E+08 and 5.79E+08 and 6.19E+08
- FL intensity of tumor (Supplementary Fig.29 (c)) ([1]; 2nd size group (mean tumor size 22.090 mm3), mean of 3 mice): 5.80E+08
- FL intensity of tumor (Supplementary Fig.29 (c)) ([1]; 3rd size group (mean tumor size 46.413 mm3), individual mice): 7.28E+08 and 7.16E+08 and 7.94E+08
- FL intensity of tumor (Supplementary Fig.29 (c)) ([1]; 3rd size group (mean tumor size 46.413 mm3), mean of 3 mice): 7.46E+08
- FL intensity of tumor (Supplementary Fig.29 (c)) ([1]; 4th size group (mean tumor size 75.889 mm3), individual mice): 8.91E+08 and 9.02E+08 and 8.21E+08
- FL intensity of tumor (Supplementary Fig.29 (c)) ([1]; 4th size group (mean tumor size 75.889 mm3), mean of 3 mice): 8.72E+08
- FL intensity of tumor (Supplementary Fig.29 (c)) ([1]; 5th size group (mean tumor size 125.544 mm3), individual mice): 8.74E+08 and 9.61E+08 and 8.79E+08
- FL intensity of tumor (Supplementary Fig.29 (c)) ([1]; 5th size group (mean tumor size 125.544 mm3), mean of 3 mice): 9.05E+08

Structure (SMILES): CC1(C)C(/C=C/C2=C3Oc4cc(O)c(Cl)cc4C=C3CCC2)=[N+](CCCNC(=O)[C@@H](Cc2ccccc2)NC(=O)[C@@H](Cc2ccccc2)NC(=O)CCC(=O)[O][Pt]([NH2])([NH2])([OH])([Cl])[Cl])c2ccccc21 [CyPt]
- CyPt (%), mean ([2]; 5 mM GSH, 0min): 100%
- CyPt (%), mean ([2]; 5 mM GSH, 10 min): 76.7055%
- CyPt (%), mean ([2]; 5 mM GSH, 20 min): 54.753%
- CyPt (%), mean ([2]; 5 mM GSH, 30 min): 42.9173%
- CyPt (%), mean ([2]; 5 mM GSH, 40 min): 28.9716%
- CyPt (%), mean ([2]; 5 mM GSH, 50 min): 13.7577%
- CyPt (%), mean ([2]; 5 mM GSH, 60 min): 1.569%
- CyPt (%), mean ([2]; 10 mM GSH, 0min): 100.00%
- CyPt (%), mean ([2]; 10 mM GSH, 10 min): 82.67%
- CyPt (%), mean ([2]; 10 mM GSH, 20 min): 59.68%
- CyPt (%), mean ([2]; 10 mM GSH, 30 min): 38.50%
- CyPt (%), mean ([2]; 10 mM GSH, 40 min): 22.16%
- CyPt (%), mean ([2]; 10 mM GSH, 50 min): 9.16%
- CyPt (%), mean ([2]; 10 mM GSH, 60 min): 0.00%
